Measured values: patent US20250197864A1, “LNCRNA TRANSCRIPTS IN MELANOMAGENESIS” (The Regents of the University of California, priority 2021, published 2025)
For at least one compound, name, drawing or mass did not settle the structure.

Columns and labels:
[1] = system: hnRNPA2/B1 and TRASH expression in the D04 and MM415 cell line; experiment: Trametinib-induced expression (FIG. 5B); assay type: cell-based, human; conditions: trametinib treatment
[2] = system: D04 cells; experiment: Repetition of drug treatment in surviving D04 cells (drug resistance test); assay type: cell-based, human; conditions: TRASH-ASO 50 nM or MEKi 15 nM (or 20 nM), recovery in drug free media, five days (120 hrs), n=3, listed as MEKi
Experimental: Dependent on cell doubling time, 0.7-2×10^^3 cells were seeded in 96 well plates. 1 day after seeding cells were incubated in media with oligonucleotide concentration and/or MEKi and transfection reagent. 3 (synergy experiments) or 5 (solely ASO) days after transfection Total luminescence was measured on the SynergyHT plate reader (BioTek) using Gen5 software.
Rescuing cells that survived initial TRASH-ASO (SEQ ID NO:15) and MEKi (trametinib) treatment and providing the rescued cells with a phase of regrowth in drug free media, was followed by repetition of the preceding drug treatment. […] Incubation time was 120 hrs, n=3. (FIG. 5d).

CC(=O)Nc1cccc(-n2c(=O)n(C3CC3)c(=O)c3c(Nc4ccc(I)cc4F)n(C)c(=O)c(C)c32)c1 [trametinib]
hnRNPA2/B1 and TRASH expression [1]: dose dependent upregulation | cell-growth reduction on repetition of the preceding drug treatment in surviving cells [2]: significantly decreased (p<0.001) cell-growth reduction
